The source of these data is patent US20250009893A1.

Protein sequences, listed by entry. Tags and fused reporters are not part of them. Residues count along the entry.
UniProt P07333, 20-972 limits assumed: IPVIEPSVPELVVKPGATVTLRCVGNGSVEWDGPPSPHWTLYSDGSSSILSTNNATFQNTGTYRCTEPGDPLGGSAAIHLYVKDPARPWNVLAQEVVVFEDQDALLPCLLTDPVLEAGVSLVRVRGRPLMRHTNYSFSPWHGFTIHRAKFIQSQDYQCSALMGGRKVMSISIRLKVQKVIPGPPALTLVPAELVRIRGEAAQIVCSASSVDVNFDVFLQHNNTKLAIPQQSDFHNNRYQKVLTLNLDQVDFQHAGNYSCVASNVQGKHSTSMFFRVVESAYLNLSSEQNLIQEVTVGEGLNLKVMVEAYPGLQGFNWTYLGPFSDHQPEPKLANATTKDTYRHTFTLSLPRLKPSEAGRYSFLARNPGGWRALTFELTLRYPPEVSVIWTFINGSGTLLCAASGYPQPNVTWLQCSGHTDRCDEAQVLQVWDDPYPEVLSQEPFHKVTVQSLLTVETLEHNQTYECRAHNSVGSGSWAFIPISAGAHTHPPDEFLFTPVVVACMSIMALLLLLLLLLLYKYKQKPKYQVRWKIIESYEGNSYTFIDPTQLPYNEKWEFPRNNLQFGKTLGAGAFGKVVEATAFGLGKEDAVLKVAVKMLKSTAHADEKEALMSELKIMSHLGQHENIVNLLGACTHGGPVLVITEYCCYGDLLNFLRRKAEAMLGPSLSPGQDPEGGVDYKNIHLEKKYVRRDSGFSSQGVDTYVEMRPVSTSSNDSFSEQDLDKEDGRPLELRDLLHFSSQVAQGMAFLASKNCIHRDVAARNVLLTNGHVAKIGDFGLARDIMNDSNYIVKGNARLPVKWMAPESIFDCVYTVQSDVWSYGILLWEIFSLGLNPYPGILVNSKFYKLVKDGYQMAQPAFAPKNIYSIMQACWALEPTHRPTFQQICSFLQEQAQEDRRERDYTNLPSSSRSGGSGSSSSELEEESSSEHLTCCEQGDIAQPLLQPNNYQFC
UniProt P10721, 26-976 limits assumed: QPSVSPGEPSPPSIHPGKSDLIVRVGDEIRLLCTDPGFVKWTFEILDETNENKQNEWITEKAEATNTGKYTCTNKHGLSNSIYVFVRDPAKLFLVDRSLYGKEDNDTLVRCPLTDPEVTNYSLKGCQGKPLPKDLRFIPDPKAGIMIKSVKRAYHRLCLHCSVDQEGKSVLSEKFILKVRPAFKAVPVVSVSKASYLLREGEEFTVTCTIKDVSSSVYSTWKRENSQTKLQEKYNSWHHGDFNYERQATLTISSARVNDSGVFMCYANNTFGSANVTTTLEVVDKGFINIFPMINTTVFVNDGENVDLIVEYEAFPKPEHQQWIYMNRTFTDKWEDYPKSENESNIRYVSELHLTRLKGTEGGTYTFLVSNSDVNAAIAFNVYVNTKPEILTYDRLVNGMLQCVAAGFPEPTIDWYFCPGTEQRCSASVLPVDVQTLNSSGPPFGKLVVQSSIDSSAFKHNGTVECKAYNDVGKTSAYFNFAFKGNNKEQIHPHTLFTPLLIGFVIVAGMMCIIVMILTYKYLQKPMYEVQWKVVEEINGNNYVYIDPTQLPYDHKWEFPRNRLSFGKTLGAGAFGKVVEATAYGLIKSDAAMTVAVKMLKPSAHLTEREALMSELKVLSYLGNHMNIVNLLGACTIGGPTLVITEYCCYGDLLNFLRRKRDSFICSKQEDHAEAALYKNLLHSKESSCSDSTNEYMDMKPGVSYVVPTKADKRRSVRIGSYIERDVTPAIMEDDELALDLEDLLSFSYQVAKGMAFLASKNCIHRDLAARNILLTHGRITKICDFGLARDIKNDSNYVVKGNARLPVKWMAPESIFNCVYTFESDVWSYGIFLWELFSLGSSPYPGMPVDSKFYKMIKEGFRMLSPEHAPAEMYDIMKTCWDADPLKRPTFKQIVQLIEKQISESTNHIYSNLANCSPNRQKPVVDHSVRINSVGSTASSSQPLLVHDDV
UniProt P35968, 20-1356 limits assumed: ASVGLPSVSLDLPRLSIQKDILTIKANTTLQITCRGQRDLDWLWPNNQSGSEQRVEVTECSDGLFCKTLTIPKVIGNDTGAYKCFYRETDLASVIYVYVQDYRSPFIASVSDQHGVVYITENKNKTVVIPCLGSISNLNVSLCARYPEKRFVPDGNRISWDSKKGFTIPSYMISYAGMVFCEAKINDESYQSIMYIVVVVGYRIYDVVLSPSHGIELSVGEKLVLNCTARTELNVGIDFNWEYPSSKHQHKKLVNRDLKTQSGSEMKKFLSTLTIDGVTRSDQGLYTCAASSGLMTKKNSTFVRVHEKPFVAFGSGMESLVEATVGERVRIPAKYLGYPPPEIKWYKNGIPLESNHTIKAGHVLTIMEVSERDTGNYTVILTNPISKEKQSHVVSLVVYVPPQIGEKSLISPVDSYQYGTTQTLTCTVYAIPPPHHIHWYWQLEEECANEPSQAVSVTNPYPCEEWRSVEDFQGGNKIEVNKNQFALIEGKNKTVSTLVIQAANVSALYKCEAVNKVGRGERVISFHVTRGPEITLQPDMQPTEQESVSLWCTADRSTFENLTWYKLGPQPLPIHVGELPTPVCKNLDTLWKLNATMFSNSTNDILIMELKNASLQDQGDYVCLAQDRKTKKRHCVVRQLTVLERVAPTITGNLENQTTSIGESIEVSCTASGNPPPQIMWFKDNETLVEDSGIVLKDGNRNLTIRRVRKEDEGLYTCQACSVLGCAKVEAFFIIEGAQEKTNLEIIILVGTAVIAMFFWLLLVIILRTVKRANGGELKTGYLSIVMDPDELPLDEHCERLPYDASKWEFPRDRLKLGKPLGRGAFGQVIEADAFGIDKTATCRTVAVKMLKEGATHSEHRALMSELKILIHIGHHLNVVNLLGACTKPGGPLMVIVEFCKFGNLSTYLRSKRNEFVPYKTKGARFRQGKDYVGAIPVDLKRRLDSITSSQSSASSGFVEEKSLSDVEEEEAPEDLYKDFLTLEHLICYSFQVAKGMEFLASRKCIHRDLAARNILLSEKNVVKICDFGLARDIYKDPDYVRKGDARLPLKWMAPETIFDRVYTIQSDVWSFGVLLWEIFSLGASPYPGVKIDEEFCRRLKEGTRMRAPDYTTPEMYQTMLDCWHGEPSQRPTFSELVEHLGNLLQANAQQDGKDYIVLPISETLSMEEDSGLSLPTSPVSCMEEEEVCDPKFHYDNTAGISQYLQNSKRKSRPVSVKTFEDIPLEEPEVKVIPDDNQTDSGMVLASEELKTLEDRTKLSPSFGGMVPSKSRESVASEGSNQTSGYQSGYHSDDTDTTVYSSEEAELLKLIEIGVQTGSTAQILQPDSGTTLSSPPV
UniProt P17948, 27-1338 limits assumed: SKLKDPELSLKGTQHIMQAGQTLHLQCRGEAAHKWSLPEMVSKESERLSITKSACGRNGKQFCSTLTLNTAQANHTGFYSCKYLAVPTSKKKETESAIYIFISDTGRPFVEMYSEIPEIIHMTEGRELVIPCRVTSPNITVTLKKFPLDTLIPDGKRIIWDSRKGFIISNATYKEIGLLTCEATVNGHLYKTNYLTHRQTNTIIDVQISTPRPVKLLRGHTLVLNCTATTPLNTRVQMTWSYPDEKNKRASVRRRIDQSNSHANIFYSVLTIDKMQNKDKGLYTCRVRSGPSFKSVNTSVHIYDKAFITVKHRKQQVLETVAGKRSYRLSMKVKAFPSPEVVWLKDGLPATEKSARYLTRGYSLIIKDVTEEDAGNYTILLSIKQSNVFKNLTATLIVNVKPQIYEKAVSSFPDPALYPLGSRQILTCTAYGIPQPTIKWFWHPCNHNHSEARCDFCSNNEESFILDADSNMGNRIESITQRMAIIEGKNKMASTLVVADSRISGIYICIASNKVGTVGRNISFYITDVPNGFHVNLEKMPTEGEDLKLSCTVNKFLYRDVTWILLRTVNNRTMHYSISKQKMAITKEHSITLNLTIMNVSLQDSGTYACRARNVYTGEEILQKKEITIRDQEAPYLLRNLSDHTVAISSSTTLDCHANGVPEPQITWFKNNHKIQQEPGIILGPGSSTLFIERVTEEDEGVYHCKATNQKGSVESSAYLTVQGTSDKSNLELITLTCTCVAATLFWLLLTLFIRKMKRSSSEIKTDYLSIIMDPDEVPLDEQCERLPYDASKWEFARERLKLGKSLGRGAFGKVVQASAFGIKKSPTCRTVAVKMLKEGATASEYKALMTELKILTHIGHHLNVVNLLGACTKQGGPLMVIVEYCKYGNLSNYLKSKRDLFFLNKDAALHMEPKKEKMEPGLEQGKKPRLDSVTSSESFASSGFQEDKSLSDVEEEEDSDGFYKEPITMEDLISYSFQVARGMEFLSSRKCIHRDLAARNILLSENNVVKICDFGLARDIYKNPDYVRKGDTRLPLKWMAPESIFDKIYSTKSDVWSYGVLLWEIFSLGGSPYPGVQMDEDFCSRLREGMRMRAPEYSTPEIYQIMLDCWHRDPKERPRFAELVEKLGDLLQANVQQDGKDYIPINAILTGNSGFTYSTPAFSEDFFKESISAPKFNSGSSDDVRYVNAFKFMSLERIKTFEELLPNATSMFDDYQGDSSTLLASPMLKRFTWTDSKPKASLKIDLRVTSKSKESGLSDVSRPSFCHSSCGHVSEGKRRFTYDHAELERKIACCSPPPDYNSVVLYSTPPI
UniProt P16234, 24-1089 limits assumed: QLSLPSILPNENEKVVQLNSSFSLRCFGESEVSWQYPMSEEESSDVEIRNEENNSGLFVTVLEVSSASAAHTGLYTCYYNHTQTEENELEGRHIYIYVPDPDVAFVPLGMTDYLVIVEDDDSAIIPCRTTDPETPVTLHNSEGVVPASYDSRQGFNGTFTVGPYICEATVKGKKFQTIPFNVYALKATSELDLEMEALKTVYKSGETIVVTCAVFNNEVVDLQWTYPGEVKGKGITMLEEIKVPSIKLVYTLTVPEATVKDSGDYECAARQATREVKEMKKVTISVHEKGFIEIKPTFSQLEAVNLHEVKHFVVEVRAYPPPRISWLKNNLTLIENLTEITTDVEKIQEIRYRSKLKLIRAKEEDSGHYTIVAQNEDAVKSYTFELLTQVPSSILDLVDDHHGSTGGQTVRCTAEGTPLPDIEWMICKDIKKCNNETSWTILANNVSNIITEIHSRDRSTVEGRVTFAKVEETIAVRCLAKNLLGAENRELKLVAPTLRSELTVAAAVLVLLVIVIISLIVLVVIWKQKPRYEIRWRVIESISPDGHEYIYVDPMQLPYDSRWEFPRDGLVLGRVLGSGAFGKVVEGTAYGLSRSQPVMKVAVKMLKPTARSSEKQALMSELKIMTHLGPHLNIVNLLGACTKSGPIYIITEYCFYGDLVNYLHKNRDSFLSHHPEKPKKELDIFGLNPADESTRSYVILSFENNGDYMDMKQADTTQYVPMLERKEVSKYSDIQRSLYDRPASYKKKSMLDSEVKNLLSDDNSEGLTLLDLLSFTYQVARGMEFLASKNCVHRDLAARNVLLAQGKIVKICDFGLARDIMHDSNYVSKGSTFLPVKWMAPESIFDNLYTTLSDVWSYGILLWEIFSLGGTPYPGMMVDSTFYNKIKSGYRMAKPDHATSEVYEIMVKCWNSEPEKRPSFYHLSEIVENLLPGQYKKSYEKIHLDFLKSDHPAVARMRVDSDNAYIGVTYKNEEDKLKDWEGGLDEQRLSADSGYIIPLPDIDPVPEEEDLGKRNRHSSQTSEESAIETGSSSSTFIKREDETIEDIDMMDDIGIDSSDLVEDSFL

Series [1] is described as follows: In vitro stability of dendrimer didesethyl sunitinib conjugates in human plasma. The settings on record: physiological conditions. As for the experimental part: (§1) In vitro stability of dendrimer didesethyl sunitinib conjugates, D-4517 and D-4517.2, in human, mouse and rat plasma was evaluated at physiological conditions. […] At 48 hours, in all three plasma, less than 0.5% drug (by weight) was released from dendrimer drug conjugates.

Series [2] in a line: Size and zeta potential, Zetasizer Nano ZS.
Series [3] deals with PDGFRB (Homo sapiens, UniProt P09619). As to the kind of experiment: Kinase comparative binding affinity assay.
Series [4] concerns the target CSF1R (Homo sapiens, UniProt P07333). Kind of series: Kinase comparative binding affinity assay.
Series [5] concerns the target KIT (Homo sapiens, UniProt P10721). Kind of series: Kinase comparative binding affinity assay.
Series [6] addresses VEGFR2 (Homo sapiens, UniProt P35968). As to the kind of experiment: Kinase comparative binding affinity assay.
In series [7] the target is VEGFR1 (Homo sapiens, UniProt P17948). Kind of series: Kinase comparative binding affinity assay.
The target in series [8] is PDGFRA (Homo sapiens, UniProt P16234). Kind of series: Kinase comparative binding affinity assay.
Series [9] in a line: In vitro stability of dendrimer didesethyl sunitinib conjugates in rat plasma. The settings on record: physiological conditions. As to the method: as §1

Structures were worked out from names or drawings and are uncertain.

`COC(=O)CCC/C(N)=C\NCCOCCOCCOCCC(=O)NCCNC(=O)c1c(C)[nH]c(C=C2C(=O)Nc3ccc(F)cc32)c1C`: the figures for the “drug release (weight percentage)” value in [1] and in [9] were 2% and 4%, respectively. Moreover, the zeta potential result in series [2] (0.2 mg/mL in 10 mM NaCl) is recorded as “+5.4±0.4 mV”. Moreover, in series [2] (0.5 mg/mL in deionized water), the size is recorded as 5.5±0.5 nm. Also, the Kd was 0.011 µM in series [3]; 0.082 µM in series [4]; 0.0034 µM in [5]; 0.027 µM in series [6] (VEGFR2); 1.1 µM in series [7]; 0.016 µM in [8]. The “affinity for VEGFR2” value in series [6] (without release of the active drug AVT-4517) is given as “nanomolar affinity”.

By Kd is commonly meant the equilibrium constant for the complex coming apart.
